Among the data in PMC10307626, “Structural basis of NINJ1-mediated plasma membrane rupture in cell death” (Nature, 2023) are binding values, retold here.

The experiment deals with endogenous mouse NINJ1 in bone-marrow-derived macrophages (mouse (endogenous in BMDMs)) (UniProt O70131). In words: cross-linking; primed mouse BMDMs, untreated or stimulated with nigericin (2–85 min or 1.5 h), then membrane-impermeable BS3 (3 mM) for 5 min at room temperature, stopped with 20 mM Tris pH 7.5; western blot of lysates combined with precipitated supernatants. For orientation: Immunoblotting shows a protein as a band on a membrane.

No constants are given. Whether binding was seen depends on the method and setting. Binding seen in cells or lysates may run through a third protein. Some entries that bind do so weakly or less than the wild type.

B1: endogenous mouse NINJ1 in bone-marrow-derived macrophages (protein, UniProt O70131 1-152)
chain: MESGTEEYELNGDLRPGSPGSPDALPPRWGLRNRPINVNHYANKKSAAESMLDIALLMANASQLKAVVEQGNDFAFFVPLVVLISISLVLQIGVGVLLIFLVKYDLNNPAKHAKLDFLNNLATGLVFIIVVVNIFITAFGVQKPVMDVAPRQ
B1: the binding result is on record as “binds”.
